PubChem BioAssay AID1159578 | Peter MacCallum Cancer Centre, 2015

Screen: 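Genome-wide hunt for genes controlling movement of lymphatic endothelial cells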 (primary screen)
Cell system: human lymphatic endothelial cells
Reagent: siRNA pool against human genes, 40 nM
Time to read-out: 48 h after transfection
Measured: 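High-content imaging of dye-stained cells in a scratch assay measures filled wound area and nuclei per well; duplicate means given as ratio to mock and robust z-score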
Scale: migration robust z-score: higher = faster migration into the scratch; migration relative to mock: higher = more scratch area covered than mock; nuclei per well: higher = more cells in the well
Call rule: 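Migration changed when robust z exceeds 2 or falls below -2 and mean nuclei number is at least 3300; otherwise not called changed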
Meaning of the calls: active = migration changed; inactive = no migration change, or too few cells
The whole screen tested about 18,000 reagents; below is an unselected part. About 1,030 of them (5.7%) were called active. 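Inactive calls also include pools with fewer than 3300 nuclei, whose migration was not assessed.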 Raw values are not corrected between plates. A number with no mark means an inactive call. Reagent sequences are not shown.

no.	target	migration robust z-score	migration class with cell-count check	migration relative to mock	nuclei per well, duplicate mean
1	ENTREP1 (endosomal transmembrane epsin interactor 1)	-0.68	migration z between -2 and 2; enough cells	0.71	4632
2	SPAG7 (sperm associated antigen 7)	-1.26	migration z between -2 and 2; enough cells	0.56	5609
3	FAM20A (FAM20A golgi associated secretory pathway pseudokinase)	0.51	migration z between -2 and 2; enough cells	1.02	5018
4	ZNF157 (zinc finger protein 157)	0.97	migration z between -2 and 2; enough cells	1.13	5220
5	TJP1 (tight junction protein 1)	0.42	migration z between -2 and 2; enough cells	0.88	6576
6	TMEM31 (transmembrane protein 31)	0.86	migration z between -2 and 2; enough cells	1.11	6576
7	DKK1 (dickkopf Wnt signaling pathway inhibitor 1)	-0.81	migration z between -2 and 2; enough cells	0.68	5480
8	SPRR1B (small proline rich protein 1B)	-0.87	migration z between -2 and 2; enough cells	0.66	3332
9	DDO (D-aspartate oxidase)	0.29	migration z between -2 and 2; enough cells	0.86	5588
10	KLHL22 (kelch like family member 22)	-0.7	migration z between -2 and 2; enough cells	0.7	5866
11	EDN2 (endothelin 2)	-1.46	migration z between -2 and 2; enough cells	0.51	4661
12	TRIM51BP (tripartite motif-containing 51B, pseudogene)	-0.26	migration z between -2 and 2; enough cells	0.76	4055
13	SLIRP (SRA stem-loop interacting RNA binding protein)	0.64	migration z between -2 and 2; enough cells	1.05	5260
14	HSD17B14 (hydroxysteroid 17-beta dehydrogenase 14)	0.05	migration z between -2 and 2; enough cells	0.82	3584
15	LXN (latexin)	1.34	migration z between -2 and 2; enough cells	1.23	5739
16	AQP6 (aquaporin 6)	-1.24	migration z between -2 and 2; enough cells	0.57	6628
17	ARFGEF1 (ARF guanine nucleotide exchange factor 1)	0.78	migration z between -2 and 2; enough cells	1.09	6180
18	ZNF519 (zinc finger protein 519)	0.19	migration z between -2 and 2; enough cells	0.93	6439
19	INO80E (INO80 complex subunit E)	1.52	migration z between -2 and 2; enough cells	1.27	6127
20	SEPTIN6 (septin 6)	-2.65 (active)	migration z below -2; enough cells	0.3	3956
21	SLC7A3	1.06	migration z between -2 and 2; enough cells	1.01	6088
22	GPR151 (G protein-coupled receptor 151)	0.42	migration z between -2 and 2; enough cells	0.88	6087
23	GNAQ (G protein subunit alpha q)	-1.89	migration z between -2 and 2; enough cells	0.39	5110
24	EGFL6 (EGF like domain multiple 6)	-0.41	migration z between -2 and 2; enough cells	0.78	5013
25	HERC4 (HECT and RLD domain containing E3 ubiquitin protein ligase 4)	-1.04	migration z between -2 and 2; enough cells	0.6	4752
26	RASAL1 (RAS protein activator like 1)	-0.06	migration z between -2 and 2; enough cells	0.8	5043
27	PLXNA4 (plexin A4)	-0.05	migration z between -2 and 2; enough cells	0.86	5255
28	SSBP3 (single stranded DNA binding protein 3)	-0.36	migration z between -2 and 2; enough cells	0.79	5080
29	TOP1 (DNA topoisomerase I)	1.19	migration z between -2 and 2; enough cells	1.04	8278
30	ASAH1 (N-acylsphingosine amidohydrolase 1)	-2.05 (active)	migration z below -2; enough cells	0.41	3722
31	BRI3BP (BRI3 binding protein)	0.8	migration z between -2 and 2; enough cells	1.09	7176
32	PCSK5 (proprotein convertase subtilisin/kexin type 5)	0.02	migration z between -2 and 2; enough cells	0.81	5908
33	TMBIM4 (transmembrane BAX inhibitor motif containing 4)	0.5	migration z between -2 and 2; enough cells	1.02	5731
34	MUL1 (mitochondrial E3 ubiquitin protein ligase 1)	1.17	migration z between -2 and 2; enough cells	1.03	6146
35	OXLD1 (oxidoreductase like domain containing 1)	-0.86	migration z between -2 and 2; enough cells	0.66	4832
36	TMEM255B (transmembrane protein 255B)	0.37	migration z between -2 and 2; enough cells	0.98	5260
37	YPEL4 (yippee like 4)	-0.6	migration z between -2 and 2; enough cells	0.73	5491
38	MPZL3 (myelin protein zero like 3)	-2.75	under 3300 nuclei; migration not judged	0.16	2046
39	CMYA5 (cardiomyopathy associated 5)	-1.14	migration z between -2 and 2; enough cells	0.6	4874
40	SGCB (sarcoglycan beta)	-0.75	migration z between -2 and 2; enough cells	0.69	5770
41	NXPE3 (neurexophilin and PC-esterase domain family member 3)	-0.5	migration z between -2 and 2; enough cells	0.76	5894
42	RINL (Ras and Rab interactor like)	0.16	migration z between -2 and 2; enough cells	0.92	5771
43	PRAF2 (PRA1 domain family member 2)	0.22	migration z between -2 and 2; enough cells	0.94	5147
44	POLR3A (RNA polymerase III subunit A)	0.39	migration z between -2 and 2; enough cells	0.88	5268
45	INTS5 (integrator complex subunit 5)	-0.23	migration z between -2 and 2; enough cells	0.82	5668
46	SGSH (N-sulfoglucosamine sulfohydrolase)	-1.29	migration z between -2 and 2; enough cells	0.55	5032
47	ZNF598 (zinc finger protein 598, E3 ubiquitin ligase)	1.91	migration z between -2 and 2; enough cells	1.38	6980
48	PPP2R5C (protein phosphatase 2 regulatory subunit B'gamma)	0	migration z between -2 and 2; enough cells	0.8	4932
49	AP1AR	0.28	migration z between -2 and 2; enough cells	0.96	5326
50	DRC5 (dynein regulatory complex subunit 5)	-2.51	under 3300 nuclei; migration not judged	0.22	2958
51	SLC39A6	1.28	migration z between -2 and 2; enough cells	1.21	7148
52	GPR50 (G protein-coupled receptor 50)	0.91	migration z between -2 and 2; enough cells	0.98	5845
53	DLX3 (distal-less homeobox 3)	-1.4	migration z between -2 and 2; enough cells	0.54	4155
54	TLX1 (T cell leukemia homeobox 1)	-0.02	migration z between -2 and 2; enough cells	0.8	5740
55	ADAMTS12 (ADAM metallopeptidase with thrombospondin type 1 motif 12)	1.71	migration z between -2 and 2; enough cells	1.14	6008
56	DHX30 (DExH-box helicase 30)	-0.16	migration z between -2 and 2; enough cells	0.78	4821
57	AGPAT3 (1-acylglycerol-3-phosphate O-acyltransferase 3)	-1.42	migration z between -2 and 2; enough cells	0.53	4401

8 of these entries in another layout.
{"target":"PPP2R5C (protein phosphatase 2 regulatory subunit B'gamma)","migration robust z-score":0,"migration class with cell-count check":"migration z between -2 and 2; enough cells","migration relative to mock":0.8,"nuclei per well, duplicate mean":4932}
{"target":"AP1AR","migration robust z-score":0.28,"migration class with cell-count check":"migration z between -2 and 2; enough cells","migration relative to mock":0.96,"nuclei per well, duplicate mean":5326}
{"target":"DRC5 (dynein regulatory complex subunit 5)","migration robust z-score":-2.51,"migration class with cell-count check":"under 3300 nuclei; migration not judged","migration relative to mock":0.22,"nuclei per well, duplicate mean":2958}
{"target":"SLC39A6","migration robust z-score":1.28,"migration class with cell-count check":"migration z between -2 and 2; enough cells","migration relative to mock":1.21,"nuclei per well, duplicate mean":7148}
{"target":"GPR50 (G protein-coupled receptor 50)","migration robust z-score":0.91,"migration class with cell-count check":"migration z between -2 and 2; enough cells","migration relative to mock":0.98,"nuclei per well, duplicate mean":5845}
{"target":"DLX3 (distal-less homeobox 3)","migration robust z-score":-1.4,"migration class with cell-count check":"migration z between -2 and 2; enough cells","migration relative to mock":0.54,"nuclei per well, duplicate mean":4155}
{"target":"TLX1 (T cell leukemia homeobox 1)","migration robust z-score":-0.02,"migration class with cell-count check":"migration z between -2 and 2; enough cells","migration relative to mock":0.8,"nuclei per well, duplicate mean":5740}
{"target":"ADAMTS12 (ADAM metallopeptidase with thrombospondin type 1 motif 12)","migration robust z-score":1.71,"migration class with cell-count check":"migration z between -2 and 2; enough cells","migration relative to mock":1.14,"nuclei per well, duplicate mean":6008}
